# Assay results: PubChem BioAssay AID540276 (National Center for Advancing Translational Sciences (NCATS), 2011)
# “And” between values parts separate entries of the source, which are not always exact repeats. Equal values may be shown once. Among all 300,000 compounds or so, about 5,400 (1.8%) were called active. Inconclusive results, whose numbers are uncertain, are shown with a selection of clear calls. Calls come from the whole dose curve; tested in HEK293 cells. Where the call is inconclusive, the potency comes from a doubtful curve fit.
# Test: qHTS for inhibitors of binding or entry into cells for Marburg Virus
# Conditions: Marburg virus pseudotyped entry inhibition, cell reporter; series mostly up to 37.8 µM
# Potency is the fitted concentration of half-maximal effect.
row,Compound,Potency
1,O=C(C1=C(O)C(=O)N(CCOCCO)C1c1cccc([N+](=O)[O-])c1)c1cccs1 (stereo not given),"inconclusive: 0.708 µM [inhibitor, partial curve, poor fit]"
2,Cc1nn(-c2ccccc2)c(C)c1C(=O)OCC(=O)N(C)C1CCS(=O)(=O)C1 (stereo not given),"inconclusive: 29.1 µM [activator, single point]"
3,COCCN(C(=O)CSc1nnc(-c2cccs2)n1N)c1c(N)n(Cc2ccccc2)c(=O)[nH]c1=O,"inconclusive: 1 µM [activator, full curve, poor fit]"
4,CC(C)NC(=S)N/N=C/c1cccs1,inactive
5,COc1cc2c(cc1OC)C(c1cccs1)N(C(=O)c1cccnc1)CC2 (stereo not given),"inconclusive: 0.58 µM [inhibitor, full curve]"
6,Cc1ccccc1CN(c1ccc(C(=O)Nc2ccccc2C(=O)NCc2ccco2)cc1)S(C)(=O)=O,"inconclusive: 23.1 µM [inhibitor, partial curve, poor fit]"
7,Cc1ccc2c(-c3ccc([N+](=O)[O-])cc3)cc(=O)[nH]c2c1,"inconclusive: 5.01 µM [inhibitor, single point]"
8,CC(C)(C)c1ccc(OCCCC(=O)NC2=NCCS2)cc1,"inconclusive: 10 µM [inhibitor, partial curve]"
9,O=C(CSc1nc(=O)n(CCCN2CCOCC2)c2c1CCCC2)Nc1cccc(Cl)c1,"inconclusive: 15.8 µM [inhibitor, partial curve, poor fit]"
10,CCc1ccc(NC(=S)NC2CC3CCCC(C2)N3Cc2ccccc2)cc1 (stereo not given),active: 10.3 µM
11,O=C(O)/C=C/c1ccc(S(=O)(=O)Nc2cccnc2)cc1,"inconclusive: 1.26 µM [inhibitor, single point]"
12,CCOC(=O)C1CCCN(C(=O)C(C)Oc2ccc(Cl)cc2Cl)C1 (stereo not given),inactive
13,Cc1cc(NC(=O)CCC(=O)N(c2ccccc2)C(C(=O)NC2CCCC2)c2ccc(F)cc2)no1 (stereo not given),inactive
14,CCc1nn(CC(=O)N(CC)Cc2ccccc2)c(=O)c2cc3occc3n12,inactive
15,CCn1c(SCc2nc3ccccc3[nH]2)nnc1-c1ccccc1OC,inactive
16,Cc1nn(CCCC(=O)Nc2cc(C(F)(F)F)ccc2Cl)c(=O)c2c1sc1ccccc12,inactive
17,O=C1C(Cl)=C(NCCCO)C(=O)c2ccccc21,"inconclusive: 0.282 µM [inhibitor, full curve, poor fit]"
18,N#C/C(=C\c1ccc[nH]1)C(=O)Nc1ccccc1Cl,inactive
19,Cc1c(-c2ccccc2)nnn1-c1ccc(F)cc1F,"inconclusive: 0.562 µM [activator, full curve, poor fit]"
20,CC1Cc2ccccc2N1C(=O)c1cc2cccnc2n(C)c1=O (stereo not given),inactive
21,CCc1ccc(CNC(=O)CSc2cc(=O)n(CC)c3ccccc23)cc1,inactive
22,COCCN(C(=O)CCSc1ccc(F)cc1)c1c(N)n(Cc2ccccc2)c(=O)[nH]c1=O,inactive
23,COc1ccc(C(=O)C2CCCN(C3CSCCSC3)C2)c(C)c1 (stereo not given),"inconclusive: 3.98 µM [inhibitor, partial curve]"
24,c1ccc(NCc2nc3ccccc3n2CCOc2ccccc2)cc1,"inconclusive: 3.55 µM [activator, partial curve, poor fit]"

# Sorted by SMILES length (high to low): 6 of the compounds above.
row,Compound,Potency
3,COCCN(C(=O)CSc1nnc(-c2cccs2)n1N)c1c(N)n(Cc2ccccc2)c(=O)[nH]c1=O,"inconclusive: 1 µM [activator, full curve, poor fit]"
22,COCCN(C(=O)CCSc1ccc(F)cc1)c1c(N)n(Cc2ccccc2)c(=O)[nH]c1=O,inactive
16,Cc1nn(CCCC(=O)Nc2cc(C(F)(F)F)ccc2Cl)c(=O)c2c1sc1ccccc12,inactive
5,COc1cc2c(cc1OC)C(c1cccs1)N(C(=O)c1cccnc1)CC2 (stereo not given),"inconclusive: 0.58 µM [inhibitor, full curve]"
15,CCn1c(SCc2nc3ccccc3[nH]2)nnc1-c1ccccc1OC,inactive
18,N#C/C(=C\c1ccc[nH]1)C(=O)Nc1ccccc1Cl,inactive

# Going on with the list:

row,Compound,Potency
1,COc1ccc(N2CCN(C(=O)c3ccc4c(=O)n(CCc5ccc(OC)c(OC)c5)c(=O)[nH]c4c3)CC2)cc1,active: 11.2 µM
2,Cc1ccc(CNC(=O)c2oc3ccc(S(=O)(=O)N4CCC5(CC4)OCCO5)cc3c2C)cc1,"inconclusive: 35.5 µM [inhibitor, partial curve, poor fit]"
3,Cc1ccc(CNC(=O)C2CCC(=O)N2C(C)C)cc1 (stereo not given),"inconclusive: 35.5 µM [inhibitor, single point]"
4,Cc1ccc(C(=O)NCC(=O)OCC(=O)NC2CCCC(C)C2C)s1 (stereo not given),inactive
5,COc1ccc(C)cc1NC(=O)N1CCC2(CC1)OCCO2,"inconclusive: 18.3 µM [activator, partial curve, poor fit]"
6,Cc1c(/C=C/C(=O)c2ccc(Cl)s2)cnn1C,"inconclusive: 5.17 µM [activator, full curve, poor fit]"
7,COc1ccc(Cc2nnc(NC(=O)CSc3ccc(C)cc3)s2)cc1,"inconclusive: 5.62 µM [activator, single point]"
8,CCN(CC)C(=O)CNC(=S)N(CCCN1CCOCC1)Cc1cccs1,"inconclusive: 2.31 µM [activator, partial curve, poor fit]"
9,c1ccc2c(c1)Nc1nccnc1S2,"inconclusive: 3.16 µM [activator, single point]"
10,COc1ccc2c3c([nH]c2c1)C(C)N(CCC(=O)NN)CC3 (stereo not given),"inconclusive: 5.62 µM [inhibitor, single point]"
11,COc1ccc(NC(=O)CN(C)C(=O)/C=C/c2cn(-c3ccccc3)nc2-c2ccc(F)cc2)cc1,"inconclusive: 11.2 µM [inhibitor, single point]"
12,NS(=O)(=O)c1cccc(NS(=O)(=O)c2ccc(/C=C/C(=O)OCC(=O)c3ccccc3)cc2)c1,"inconclusive: 35.5 µM [inhibitor, single point]"
13,Cn1cc(C(=O)c2cccc(Cl)c2)cc1/C=N\O,inactive
14,CCOC(=O)c1cccc(NC(=O)CSc2nnc(C3CCCCC3)n2CC)c1,"inconclusive: 3.16 µM [inhibitor, single point]"
15,Cc1cc(C)c2c(N)c(S(=O)(=O)Cc3ccccc3)sc2n1,"inconclusive: 3.16 µM [inhibitor, single point]"
16,CCc1cc2c(N3CCCCC3)ncnc2s1,inactive
17,COc1ccc(C)c(Cn2c(-c3nonc3N)nc3ccccc32)c1,"inconclusive: 6.31 µM [inhibitor, single point]"
18,Cc1ccc(C(=O)NNC(=O)CCN2C(=O)C3CCCCC3C2=O)cc1 (stereo not given),"inconclusive: 5.62 µM [activator, full curve, poor fit]"
19,Cc1cccc(NC(=O)CNC(=O)CN2C(=O)NC(C)(CCC(C)C)C2=O)c1C (stereo not given),inactive
20,Cn1nc(C(F)(F)F)cc1-c1ccc(S(N)(=O)=O)s1,inactive
21,O=C(CSc1nc(=O)n2ccccc2n1)N1CCCCCC1,"inconclusive: 35.5 µM [activator, single point]"
22,CCOC(=O)N1CCN(c2ccc(C(F)(F)F)cn2)CC1,inactive
23,CC(=O)CN1C(=O)NC(c2ccccc2)(c2ccccc2)C1=O,inactive
24,CCOC(=O)c1oc2ccccc2c1CSc1nnnn1-c1ccccc1,inactive

row,Compound,Potency
1,COc1ccc(CN(Cc2ccco2)C(=O)c2ccccc2F)cc1,inactive
2,CCOC(=O)N1CCC(NC(=O)c2ccc(N3CCC4(CC3)OCCO4)c([N+](=O)[O-])c2)CC1,"inconclusive: 22.4 µM [inhibitor, single point]"
3,CC(C)(C)c1cc(C(=O)Nc2cccc3ccccc23)ccn1,inactive
4,CCOC(=O)c1c(C)[nH]c(C(=O)OCC(=O)N(CC(C)C)c2c(N)n(Cc3ccccc3)c(=O)[nH]c2=O)c1C,"inconclusive: 0.251 µM [inhibitor, full curve, poor fit]"
5,C=CCn1c(=N)n(CC(=O)c2ccc(Br)cc2)c2ccccc21,"inconclusive: 3.98 µM [inhibitor, single point]"
6,COC(=O)C1=C(C)N(Cc2ccc(OC)cc2)C(=O)/C1=C\c1ccco1,"inconclusive: 0.562 µM [inhibitor, full curve, poor fit]"
7,COc1ccccc1NC(=O)Nc1ccc(Cl)c(S(=O)(=O)Nc2ccccc2OC)c1,"inconclusive: 18.4 µM [inhibitor, single point]"
8,O=C(OCc1cccc(C(F)(F)F)c1)c1cc(S(=O)(=O)N2CCOCC2)ccc1F,"inconclusive: 25.1 µM [inhibitor, single point]"
9,Cc1ccc2c(c1)cc1c(=O)n(Cc3ccc(Cl)cc3)nc(C)n12,"inconclusive: 3.16 µM [inhibitor, partial curve, poor fit]"
10,COc1ccc(C(C(=O)NC2CCCCC2)N(C(=O)c2ccco2)c2ccc(-n3cnnn3)c(C)c2)cc1 (stereo not given),inactive
11,COc1ccc(C(=O)NCCn2ccc3ccccc32)c(OC)c1,"inconclusive: 20.6 µM [inhibitor, single point]"
12,COc1ccc(Br)cc1C(=O)Nc1ccc(N2CCCC2)cc1,"inconclusive: 2 µM [activator, partial curve, poor fit]"
13,Clc1ccc(C2=Nn3c(nnc3-c3cccs3)SC2)cc1,inactive
14,CC(C)C(NC(=O)c1ccc(C(C)(C)C)cc1)C(=O)NCC1(N(C)C)CCCCC1 (stereo not given),"inconclusive: 28.2 µM [inhibitor, partial curve, poor fit]"
15,COc1ccc(CCNC(=O)c2sc3ccccc3c2Cl)cc1OC,inactive
16,O=C(CC1CCCCC1)NCc1ccccc1Cl,inactive
17,CCC(C)(C)C1CCc2c(sc(NC(=O)c3cccs3)c2C(N)=O)C1 (stereo not given),inactive
18,O=C(COC(=O)c1ccc([N+](=O)[O-])o1)Nc1cccc2ccccc12,"inconclusive: 12.6 µM [inhibitor, partial curve, poor fit]"
19,CC(C)(Sc1ccc(CCN(CCCCC2CCCCC2)C(=O)NC2CCCCC2)cc1)C(=O)O,"inactive and inconclusive: 3.55 µM [inhibitor, full curve]"
20,Cc1c(N=NC2=C(O)CC(C)(C)CC2=O)cc2c(c1[N+](=O)[O-])C(C)(C)CC2(C)C,"inconclusive: 3.55 µM [inhibitor, single point]"
21,CON(C)C(=O)Nc1ccc(Cl)cc1,"inconclusive: 18.3 µM [activator, single point]"
22,O=C1c2ccccc2C(=O)N1CCCC(=O)N1CCc2ccccc21,inactive
